Assay: general procedure: Fmoc solid-phase peptide synthesis; 2-chlorotrityl chloride resin (Iris Biotech), 0.85 mmol/g; TBTU/DIEA
Conditions: trifluoroacetate

## (3R)-N^2-[(9H-Fluoren-9-ylmethoxy)carbonyl]-3-[(tert-butoxycarbonyl)amino]-L-phenylalanyl 1-[(3R)-3-hydroxy-L-leucyl]-L-leucyl-(N^5-benzyloxycarbonyl-D-orrnthyl)-L-isoleucyl-L-allothreonyl-glycyl-L-seryl-L-serine trifluoroacetate
Coupling step
  final purity (method not given): 33% pure
  step yield: 17% of theory

## Benzyl [(3R)-3-hydroxy-L-leucyl]-L-leucyl-D-arginyl-L-isoleucyl-L-allothreonyl-glycyl-L-allothreonyl-L-serinate bistrifluoroacetate
Late stage modification step
  step yield: 78% of theory

## Benzyl [(3R)-N^2-(tert-Butoxycarbonyl)-3-hydroxy-L-leucyl]-L-leucyl-D-arginyl-L-isoleucyl-L-allothreonyl-glycyl-L-threonyl-L-serinate trifluoroacetate
Coupling step
  step yield: 20% of theory

## Benzyl [(3R)-N^2-(tert-butoxycarbonyl)-3-hydroxy-L-leucyl]-L-leucyl-D-arginyl-L-isoleucyl-L-allothreoninate trifluoroacetate
Coupling step
  step yield: 74% of theory

## Benzyl [(3R)-N^2-(tert-butoxycarbonyl)-3-hydroxy-L-leucyl]-L-leucyl-D-arginyl-L-isoleucyl-L-allothreonyl-glycyl-L-alanyl-L-serinate trifluoroacetate
Coupling step
  step yield: 50% of theory

## Benzyl [(3R)-N^2-(tert-butoxycarbonyl)-3-hydroxy-L-leucyl]-L-leucyl-D-arginyl-L-isoleucyl-L-allothreonyl-glycyl-L-allothreonyl-L-serinate trifluoroacetate
Coupling step
  step yield: 93% of theory

## Benzyl [(3R)-N^2-(tert-butoxycarbonyl)-3-hydroxy-L-leucyl]-L-leucyl-D-arginyl-L-isoleucyl-L-allothreonyl-glycyl-L-asparaginyl-L-serinate trifluoroacetate
Coupling step
  step yield: 31% of theory

## Benzyl [(3R)-N^2-(tert-butoxycarbonyl)-3-hydroxy-L-leucyl]-L-leucyl-D-arginyl-L-isoleucyl-L-allothreonyl-glycyl-L-phenylalanyl-L-serinate trifluoroacetate
Coupling step
  step yield: 33% of theory

## Benzyl [(3R)-N^2-(tert-butoxycarbonyl)-3-hydroxy-L-leucyl]-L-leucyl-D-arginyl-L-isoleucyl-L-allothreonyl-glycyl-L-seryl-L-serinate trifluoroacetate
Coupling step
  step yield: 34% of theory

## Benzyl [(3R)-N^2-(tert-butoxycarbonyl)-3-hydroxy-L-leucyl]-L-leucyl-D-arginyl-L-isoleucyl-L-allothreonyl-glycyl-[3-(3-pyridyl)-L-alanyl]-L-serinate trifluoroacetate
Coupling step
  step yield: 33% of theory

## Benzyl [(3R)-N^2-(tert-butoxycarbonyl)-3-hydroxy-L-leucyl]-L-leucyl-D-arginyl-L-isoleucyl-L-allothreonyl-glycyl-[3-{[(9H-fluoren-9-ylmethoxy)carbonyl]amino}-L-alanyl]-L-serinate trifluoroacetate
Coupling step
  step yield: 56% of theory

## Benzyl [(3R)-N^2-(tert-butoxycarbonyl)-3-hydroxy-L-leucyl]-L-leucyl-D-arginyl-L-isoleucyl-L-allothreonyl-glycyl-[(3S)-3-hydroxy-L-asparaginyl]-L-alaninate trifluoroacetate
Coupling step
  step yield: 95% of theory

## Benzyl [N^2-(tert-butoxycarbonyl)-L-leucyl]-D-arginyl-L-isoleucyl-L-allothreoninate trifluoroacetate
Coupling step
  step yield: 53% of theory

## D-Leucyl-L-leucyl-[(3R)-3-amino-L-phenylalanyl]-[(3R)-3-hydroxy-L-leucyl]-L-leucyl-D-arginyl-L-isoleucyl-L-threonyl-glycyl-L-asparaginyl-L-serine C^1.11-N^3.3-lactam bistrifluoroacetate
Late stage modification step
  step yield: 56.1% of theory

## D-Phenylalanyl-L-phenylalanyl-[(3R)-3-amino-L-alanyl]-[(3R)-3-hydroxy-L-leucyl]-L-leucyl-D-arginyl-L-isoleucyl-L-allothreonyl-glycyl-[(3S)-3-hydroxy-L-asparaginyl]-L-serine C^1.11N^3.3-lactam bistrifluoroacetate
Late stage modification step
  step yield: 23.3% of theory

## N^2-(Benzyloxycarbonyl)-N^3-{N^2.1-tert-butoxycarbonyl[(3R)-3-hydroxy-L-leucyl]-L-leucyl-D-arginyl-L-isoleucyl-L-allothreonyl-glycyl-[(3S)-3-hydroxy-L-asparaginyl]-L-seryl}-(3R)-3-amino-L-alanine 2-(trimethylsilyl)ethyl ester trifluoroacetate
Coupling step
  step yield: 69.1% of theory

## N^2-(Benzyloxycarbonyl)-N^3-{N^2.1-tert-butoxycarbonyl[(3R)-3-hydroxy-L-leucyl]-L-leucyl-D-arginyl-L-isoleucyl-L-allothreonyl-glycyl-[(3S)-3-hydroxy-L-asparaginyl]-L-seryl}-(3R)-3-amino-L-alanine trifluoroacetate
Late stage modification step
  step yield: 88.9% of theory

## N^2-(Benzyloxycarbonyl)-N^3-{N^2.1-tert-butoxycarbonyl[(3R)-3-hydroxy-L-leucyl]-L-leucyl-D-arginyl-L-isoleucyl-L-allothreonyl-glycyl-[(3S)-3-hydroxy-L-asparaginyl]-L-seryl}-(3R)-3-amino-O-methyl-L-tyrosine trifluoroacetate
Late stage modification step
  step yield: 99% of theory

## N^2-(Benzyloxycarbonyl)-N^3-{[(3R)-3-hydroxy-L-leucyl]-L-leucyl-D-arginyl-L-isoleucyl-L-allothreonyl-glycyl-[(3S)-3-hydroxy-L-asparaginyl]-L-seryl}-(3S)-3-amino-O-methyl-D-tyrosine trifluoroacetate
Late stage modification step
  step yield: 99.9% of theory

## N^2.1-(Benzyloxycarbonyl)-[(3R)-3-amino-4-(dimethylamino)-L-phenylalanyl]-[(3R)-3-hydroxy-L-leucyl]-L-leucyl-D-arginyl-L-isoleucyl-L-allothreonyl-glycyl-[(3S)-3-hydro-xy-L-asparaginyl]-L-serine C^1.9-N^3.1-lactam bistrifluoroacetate
Cyclisation step
  cyclisation yield: 52% of theory

## N^2.1-(tert-Butoxycarbonyl)-[3-tert-butyl-D-alanyl]-[3-tert-butyl-L-alanyl]-[(3R)-3-amino-4-(dimethylaminophenyl)-L-alanyl]-[(3R)-3-hydroxy-L-leucyl]-L-leucyl-D-arginyl-L-isoleucyl-L-allothreonyl-glycyl-[(3S)-3-hydroxy-L-asparaginyl]-L-serine C^1.11-N^3.3-lactam bishydrochloride
Coupling step
  final purity (method not given): about 66% pure
  step yield: 65% of theory

## N^2.1-(tert-Butoxycarbonyl)-[3-trimethylsilyl-D-alanyl]-[3-tert-butyl-L-alanyl]-[(3R)-3-amino-4-(dimethylaminophenyl)-L-alanyl]-[(3R)-3-hydroxy-L-leucyl]-L-leucyl-D-arginyl-L-iso-leucyl-L-allothreonyl-glycyl-[(3S)-3-hydroxy-L-asparaginyl]-L-serine C^1.11-N^3.3-lactam bishydrochloride
Coupling step
  step yield: 96% of theory

## Pentafluorophenyl [(3R)-N^2-(tert-butoxycarbonyl)-3-hydroxy-L-leucyl]-L-leucyl-D-arginyl-L-isoleucyl-L-allothreoninate trifluoroacetate
Late stage modification step
  step yield: 45% of theory

— US8076285B2 (Aicuris GmbH & Co. KG, priority 2006, dated 2011)
